Measurements reported in PubChem BioAssay AID1508597 (Cure First, 2020).

Assay: 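Survival screen with siRNA in ovarian cancer cells derived from patients, with or without rucaparib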 (primary screen)
Cell system: human ovarian carcinoma lines grown from tumours: OCI-P5x (papillary serous) and OCI-C5x (clear cell)
Knock-down reagent: siRNA pool against human genes, 1.25 pmol siRNA per well
Time to read-out: 72 h or 96 h, depending on the cell culture
Conditions: rucaparib 20 µM (about IC30) or vehicle, present until read-out
Rucaparib or vehicle: Vehicle
Cell line: OCI-C5x (clear cell)
Read-out: 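Luminescent ATP-based viability assay read 72 or 96 h after transfection, depending on culture, given as normalised percent viability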
Scale: viability, normalised: higher = more viable cells remaining
Hit rule: 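a well counts as a hit if its normalised viability is under 80 percent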
Calls: active = viability under 80%; inactive = viability 80% or more
Shown is an unselected part of the about 2,100 reagents, under one of the conditions tested. 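Calls flag viability under 80% in either arm, not effects specific to rucaparib; the reference for percent is not stated.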 A number with no mark means an inactive call. A reagent listed more than once was tested more than once; the source does not tell the runs apart. The record does not give: the 100% reference.

gene | PubChem SID | technical replicate | viability, normalised (%)
MYBL1 (MYB proto-oncogene like 1) | SID405527043 | 1 | 60.9 (active)
MYBL1 (MYB proto-oncogene like 1) | SID405527043 | 2 | 59.5 (active)
MYBL1 (MYB proto-oncogene like 1) | SID405527043 | 3 | 58.6 (active)
RIPK1 (receptor interacting serine/threonine kinase 1) | SID405528553 | 1 | 67.7 (active)
RIPK1 (receptor interacting serine/threonine kinase 1) | SID405528553 | 2 | 41.7 (active)
RIPK1 (receptor interacting serine/threonine kinase 1) | SID405528553 | 3 | 38.1 (active)
KLF1 (KLF transcription factor 1) | SID405526945 | 1 | 42.2 (active)
KLF1 (KLF transcription factor 1) | SID405526945 | 2 | 74.2 (active)
KLF1 (KLF transcription factor 1) | SID405526945 | 3 | 62.9 (active)
DGUOK (deoxyguanosine kinase) | SID405527560 | 1 | 45.6 (active)
DGUOK (deoxyguanosine kinase) | SID405527560 | 2 | 43.3 (active)
DGUOK (deoxyguanosine kinase) | SID405527560 | 3 | 31.2 (active)
TRPM7 | SID405527886 | 1 | 48 (active)
TRPM7 | SID405527886 | 2 | 57.4 (active)
TRPM7 | SID405527886 | 3 | 48.9 (active)
DYRK1A | SID405527866 | 1 | 70.3 (active)
DYRK1A | SID405527866 | 2 | 50 (active)
DYRK1A | SID405527866 | 3 | 56.9 (active)
MATK (megakaryocyte-associated tyrosine kinase) | SID405526462 | 1 | 117
MATK (megakaryocyte-associated tyrosine kinase) | SID405526462 | 1 | 63.8 (active)
MATK (megakaryocyte-associated tyrosine kinase) | SID405526462 | 2 | 55.7 (active)
MATK (megakaryocyte-associated tyrosine kinase) | SID405526462 | 2 | 67.1 (active)
MATK (megakaryocyte-associated tyrosine kinase) | SID405526462 | 3 | 73.9 (active)
MATK (megakaryocyte-associated tyrosine kinase) | SID405526462 | 3 | 72.8 (active)

Copied from the listing for reference:
gene | PubChem SID | technical replicate | viability, normalised (%)
KLF1 (KLF transcription factor 1) | SID405526945 | 3 | 62.9 (active)
DGUOK (deoxyguanosine kinase) | SID405527560 | 1 | 45.6 (active)
DGUOK (deoxyguanosine kinase) | SID405527560 | 2 | 43.3 (active)
DGUOK (deoxyguanosine kinase) | SID405527560 | 3 | 31.2 (active)
TRPM7 | SID405527886 | 1 | 48 (active)
TRPM7 | SID405527886 | 2 | 57.4 (active)
TRPM7 | SID405527886 | 3 | 48.9 (active)
DYRK1A | SID405527866 | 1 | 70.3 (active)
DYRK1A | SID405527866 | 2 | 50 (active)

Continued:
gene | PubChem SID | technical replicate | viability, normalised (%)
CAMK2D (calcium/calmodulin dependent protein kinase II delta) | SID405526427 | 1 | 61.7 (active)
CAMK2D (calcium/calmodulin dependent protein kinase II delta) | SID405526427 | 1 | 78.6 (active)
CAMK2D (calcium/calmodulin dependent protein kinase II delta) | SID405526427 | 2 | 51.7 (active)
CAMK2D (calcium/calmodulin dependent protein kinase II delta) | SID405526427 | 2 | 59.9 (active)
CAMK2D (calcium/calmodulin dependent protein kinase II delta) | SID405526427 | 3 | 46.8 (active)
CAMK2D (calcium/calmodulin dependent protein kinase II delta) | SID405526427 | 3 | 64.1 (active)
BMPR1A (bone morphogenetic protein receptor type 1A) | SID405526340 | 1 | 53.3 (active)
BMPR1A (bone morphogenetic protein receptor type 1A) | SID405526340 | 1 | 82.9
BMPR1A (bone morphogenetic protein receptor type 1A) | SID405526340 | 2 | 70.5 (active)
BMPR1A (bone morphogenetic protein receptor type 1A) | SID405526340 | 2 | 37.9 (active)
BMPR1A (bone morphogenetic protein receptor type 1A) | SID405526340 | 3 | 45.2 (active)
BMPR1A (bone morphogenetic protein receptor type 1A) | SID405526340 | 3 | 46.4 (active)
PDE6D (phosphodiesterase 6D) | SID405526697 | 1 | 47.3 (active)
PDE6D (phosphodiesterase 6D) | SID405526697 | 2 | 52.5 (active)
PDE6D (phosphodiesterase 6D) | SID405526697 | 3 | 41.3 (active)
TDG (thymine DNA glycosylase) | SID405528325 | 1 | 68 (active)
TDG (thymine DNA glycosylase) | SID405528325 | 2 | 76.9 (active)
TDG (thymine DNA glycosylase) | SID405528325 | 3 | 59.4 (active)
GDPD3 (glycerophosphodiester phosphodiesterase domain containing 3) | SID405526676 | 1 | 32.1 (active)
GDPD3 (glycerophosphodiester phosphodiesterase domain containing 3) | SID405526676 | 2 | 47 (active)
GDPD3 (glycerophosphodiester phosphodiesterase domain containing 3) | SID405526676 | 3 | 43.9 (active)
L3MBTL3 (L3MBTL histone methyl-lysine binding protein 3) | SID405526950 | 1 | 39.5 (active)
L3MBTL3 (L3MBTL histone methyl-lysine binding protein 3) | SID405526950 | 2 | 76.2 (active)
L3MBTL3 (L3MBTL histone methyl-lysine binding protein 3) | SID405526950 | 3 | 39.5 (active)
MAPK14 (mitogen-activated protein kinase 14) | SID405527620 | 1 | 44.2 (active)
MAPK14 (mitogen-activated protein kinase 14) | SID405527620 | 2 | 47.6 (active)
MAPK14 (mitogen-activated protein kinase 14) | SID405527620 | 3 | 68.3 (active)
MAK (male germ cell associated kinase) | SID405527602 | 1 | 51.9 (active)
MAK (male germ cell associated kinase) | SID405527602 | 2 | 56.6 (active)
MAK (male germ cell associated kinase) | SID405527602 | 3 | 60 (active)
HDAC3 (histone deacetylase 3) | SID405526841 | 1 | 58.9 (active)
HDAC3 (histone deacetylase 3) | SID405526841 | 2 | 54.7 (active)
HDAC3 (histone deacetylase 3) | SID405526841 | 3 | 59.5 (active)
